According to patent publication US20100203587A1, “USE OF DNA GYRASE INHIBITORS FOR IN VITRO POLYPEPTIDE SYNTHESIS REACTIONS” (priority 2009, published 2010):
Counter-ions that a name gives are not always drawn.

Tested on: bacterial growth from lysate
Assay: Inhibition of bacterial growth from lysate in LB medium (Example 6)
Format: cell-based
Conditions: 37° C., 16 hours

## O=C(O)c1cn(C2CC2)c2cc(N3CCNCC3)c(F)cc2c1=O [Cipro./HCl, Ciprofloxacin]
1 μg/ml
  OD595 (cell density): 0.02
10 μg/ml
  OD595 (cell density): 0.03

## O=C(O)c1cn(C2CC2)c2cc(N3CCNCC3)c(F)cc2c1=O [Ciprofloxacin]
0.1 μg/ml
  OD595 (cell density): 0.58
0.5 μg/ml
  OD595 (cell density): 0.08
1 μg/ml, listed as Cipro.
  OD595 (cell density): 0.07
5 μg/ml
  OD595 (cell density): 0.02
10 μg/ml, listed as Cipro.
  OD595 (cell density): 0.04
